Measured values reported in the supplement of paper PMC12819154, “High-throughput peptide-centric local stability assay extends protein–ligand identification to membrane proteins, tissues and bacteria” (Nature Structural & Molecular Biology, 2025).
The list shows a part of the results. Most entries show no effect beyond the scatter of the controls.

By UniProt entry, the sequences of proteins in these tests, tags left out. Where a name states a change or a piece, a line headed by the entry shows the natural chain unless it says otherwise.
UniProt O75807, whole entry: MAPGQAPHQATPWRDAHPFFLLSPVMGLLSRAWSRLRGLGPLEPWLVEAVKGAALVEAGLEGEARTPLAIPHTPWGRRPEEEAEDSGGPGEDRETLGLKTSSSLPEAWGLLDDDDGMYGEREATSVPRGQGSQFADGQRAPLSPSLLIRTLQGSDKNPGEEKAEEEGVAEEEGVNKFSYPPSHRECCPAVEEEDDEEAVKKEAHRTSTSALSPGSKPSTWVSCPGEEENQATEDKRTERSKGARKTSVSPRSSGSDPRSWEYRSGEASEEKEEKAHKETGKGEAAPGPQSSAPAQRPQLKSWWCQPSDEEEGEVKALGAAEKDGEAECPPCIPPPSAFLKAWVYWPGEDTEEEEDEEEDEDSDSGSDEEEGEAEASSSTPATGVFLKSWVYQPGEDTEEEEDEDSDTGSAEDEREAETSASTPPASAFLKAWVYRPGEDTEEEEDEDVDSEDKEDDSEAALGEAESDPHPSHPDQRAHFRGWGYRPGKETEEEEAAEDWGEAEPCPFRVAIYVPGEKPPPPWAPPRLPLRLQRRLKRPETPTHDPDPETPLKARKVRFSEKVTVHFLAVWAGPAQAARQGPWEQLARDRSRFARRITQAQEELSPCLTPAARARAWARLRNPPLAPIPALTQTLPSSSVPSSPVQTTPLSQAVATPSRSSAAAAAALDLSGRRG
UniProt O76080: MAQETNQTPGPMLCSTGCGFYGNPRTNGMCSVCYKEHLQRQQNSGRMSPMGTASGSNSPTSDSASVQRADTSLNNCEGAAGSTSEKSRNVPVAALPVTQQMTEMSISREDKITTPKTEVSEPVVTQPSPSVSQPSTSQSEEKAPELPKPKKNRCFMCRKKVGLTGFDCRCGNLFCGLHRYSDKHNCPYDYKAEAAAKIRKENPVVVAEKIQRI
UniProt O95819: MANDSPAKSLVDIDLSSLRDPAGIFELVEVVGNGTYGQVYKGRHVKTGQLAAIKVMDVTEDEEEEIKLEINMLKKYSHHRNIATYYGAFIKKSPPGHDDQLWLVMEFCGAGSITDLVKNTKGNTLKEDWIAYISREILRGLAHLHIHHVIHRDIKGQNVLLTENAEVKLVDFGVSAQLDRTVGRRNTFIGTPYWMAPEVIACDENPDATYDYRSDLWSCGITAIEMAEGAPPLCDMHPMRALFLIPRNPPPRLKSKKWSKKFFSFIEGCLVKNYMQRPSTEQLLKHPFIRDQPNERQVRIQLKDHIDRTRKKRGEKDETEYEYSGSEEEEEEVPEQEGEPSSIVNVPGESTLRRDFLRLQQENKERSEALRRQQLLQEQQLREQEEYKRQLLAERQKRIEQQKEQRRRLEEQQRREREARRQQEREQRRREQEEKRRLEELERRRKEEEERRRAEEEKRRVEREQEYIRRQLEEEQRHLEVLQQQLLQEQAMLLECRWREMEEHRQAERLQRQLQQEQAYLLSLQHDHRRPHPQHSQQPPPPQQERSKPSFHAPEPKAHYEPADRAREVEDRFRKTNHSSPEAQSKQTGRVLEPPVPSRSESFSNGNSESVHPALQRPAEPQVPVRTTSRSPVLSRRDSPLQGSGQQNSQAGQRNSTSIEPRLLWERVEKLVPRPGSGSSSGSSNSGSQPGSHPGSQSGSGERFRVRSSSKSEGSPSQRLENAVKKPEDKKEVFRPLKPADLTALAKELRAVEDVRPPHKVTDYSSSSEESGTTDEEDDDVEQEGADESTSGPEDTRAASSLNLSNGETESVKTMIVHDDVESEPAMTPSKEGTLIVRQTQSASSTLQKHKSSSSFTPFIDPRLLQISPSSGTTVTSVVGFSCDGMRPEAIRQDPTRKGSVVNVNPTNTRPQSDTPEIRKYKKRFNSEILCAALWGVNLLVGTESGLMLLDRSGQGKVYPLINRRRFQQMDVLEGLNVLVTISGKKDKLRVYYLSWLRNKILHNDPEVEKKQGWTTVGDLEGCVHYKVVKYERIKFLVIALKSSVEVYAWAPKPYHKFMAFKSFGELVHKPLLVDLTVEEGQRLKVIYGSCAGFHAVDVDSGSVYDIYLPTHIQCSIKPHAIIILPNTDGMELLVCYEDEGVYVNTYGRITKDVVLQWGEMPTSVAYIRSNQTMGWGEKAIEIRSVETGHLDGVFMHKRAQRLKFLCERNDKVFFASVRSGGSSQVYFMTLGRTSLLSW
UniProt O94913, whole entry: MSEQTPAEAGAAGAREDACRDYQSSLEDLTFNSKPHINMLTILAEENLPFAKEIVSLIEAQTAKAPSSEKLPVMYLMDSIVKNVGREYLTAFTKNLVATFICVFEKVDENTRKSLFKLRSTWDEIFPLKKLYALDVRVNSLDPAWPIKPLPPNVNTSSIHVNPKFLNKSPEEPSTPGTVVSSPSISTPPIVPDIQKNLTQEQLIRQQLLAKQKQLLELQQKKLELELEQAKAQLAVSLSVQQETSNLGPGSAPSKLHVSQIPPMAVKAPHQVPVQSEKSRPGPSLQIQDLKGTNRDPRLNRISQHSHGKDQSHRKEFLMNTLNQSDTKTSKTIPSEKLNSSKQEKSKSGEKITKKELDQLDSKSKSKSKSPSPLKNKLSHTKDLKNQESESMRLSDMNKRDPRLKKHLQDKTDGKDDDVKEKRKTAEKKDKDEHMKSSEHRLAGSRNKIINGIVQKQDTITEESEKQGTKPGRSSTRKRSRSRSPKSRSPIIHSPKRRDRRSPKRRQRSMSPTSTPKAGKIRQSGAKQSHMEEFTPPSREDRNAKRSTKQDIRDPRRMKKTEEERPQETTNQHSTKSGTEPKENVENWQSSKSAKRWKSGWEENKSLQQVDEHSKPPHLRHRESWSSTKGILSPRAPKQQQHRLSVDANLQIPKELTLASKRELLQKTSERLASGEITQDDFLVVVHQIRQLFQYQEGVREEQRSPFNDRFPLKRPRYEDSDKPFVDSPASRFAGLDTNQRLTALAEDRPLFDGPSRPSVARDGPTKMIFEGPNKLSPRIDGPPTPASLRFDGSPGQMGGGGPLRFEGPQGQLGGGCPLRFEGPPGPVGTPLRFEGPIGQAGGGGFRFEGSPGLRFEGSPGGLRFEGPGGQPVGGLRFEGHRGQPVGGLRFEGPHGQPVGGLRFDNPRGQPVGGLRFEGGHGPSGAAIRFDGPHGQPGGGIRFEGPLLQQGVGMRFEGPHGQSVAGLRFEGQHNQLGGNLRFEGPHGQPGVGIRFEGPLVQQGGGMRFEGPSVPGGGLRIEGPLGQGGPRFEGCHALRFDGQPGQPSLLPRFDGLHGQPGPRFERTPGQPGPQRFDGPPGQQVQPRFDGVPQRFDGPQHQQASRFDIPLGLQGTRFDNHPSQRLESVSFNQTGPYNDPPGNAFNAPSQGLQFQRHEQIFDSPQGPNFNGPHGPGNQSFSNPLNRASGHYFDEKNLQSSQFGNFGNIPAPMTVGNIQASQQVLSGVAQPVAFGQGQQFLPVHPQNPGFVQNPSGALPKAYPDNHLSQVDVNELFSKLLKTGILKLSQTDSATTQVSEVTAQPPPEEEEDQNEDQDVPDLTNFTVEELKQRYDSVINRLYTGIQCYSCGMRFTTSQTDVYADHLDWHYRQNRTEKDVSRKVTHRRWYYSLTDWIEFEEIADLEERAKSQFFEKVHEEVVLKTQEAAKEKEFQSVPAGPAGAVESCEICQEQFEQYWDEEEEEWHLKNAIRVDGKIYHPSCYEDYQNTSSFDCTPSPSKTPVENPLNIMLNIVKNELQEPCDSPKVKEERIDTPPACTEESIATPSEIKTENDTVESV
UniProt O94766: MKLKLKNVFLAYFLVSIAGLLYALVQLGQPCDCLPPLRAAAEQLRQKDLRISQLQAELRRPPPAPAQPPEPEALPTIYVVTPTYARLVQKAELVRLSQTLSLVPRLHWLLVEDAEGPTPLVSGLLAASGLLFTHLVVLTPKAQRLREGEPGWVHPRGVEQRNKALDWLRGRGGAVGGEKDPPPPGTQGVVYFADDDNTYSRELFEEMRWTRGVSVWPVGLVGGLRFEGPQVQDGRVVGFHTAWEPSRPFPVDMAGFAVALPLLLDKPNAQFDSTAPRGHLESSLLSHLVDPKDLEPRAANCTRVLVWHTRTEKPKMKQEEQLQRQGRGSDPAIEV
UniProt O95900: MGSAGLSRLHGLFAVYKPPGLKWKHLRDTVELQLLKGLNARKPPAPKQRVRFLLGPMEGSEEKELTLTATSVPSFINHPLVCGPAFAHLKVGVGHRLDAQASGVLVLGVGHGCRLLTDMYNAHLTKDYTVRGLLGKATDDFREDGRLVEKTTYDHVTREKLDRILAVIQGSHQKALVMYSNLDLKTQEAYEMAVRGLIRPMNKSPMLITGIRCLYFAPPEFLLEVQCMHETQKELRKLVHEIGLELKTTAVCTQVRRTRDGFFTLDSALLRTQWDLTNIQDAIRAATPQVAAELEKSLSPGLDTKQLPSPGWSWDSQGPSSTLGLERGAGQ
UniProt O95816: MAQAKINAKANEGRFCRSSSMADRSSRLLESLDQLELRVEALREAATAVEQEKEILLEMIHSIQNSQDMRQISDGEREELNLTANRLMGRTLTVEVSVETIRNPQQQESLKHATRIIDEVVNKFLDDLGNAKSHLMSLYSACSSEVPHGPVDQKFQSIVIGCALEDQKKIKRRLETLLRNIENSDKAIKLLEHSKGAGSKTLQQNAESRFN
UniProt O75554: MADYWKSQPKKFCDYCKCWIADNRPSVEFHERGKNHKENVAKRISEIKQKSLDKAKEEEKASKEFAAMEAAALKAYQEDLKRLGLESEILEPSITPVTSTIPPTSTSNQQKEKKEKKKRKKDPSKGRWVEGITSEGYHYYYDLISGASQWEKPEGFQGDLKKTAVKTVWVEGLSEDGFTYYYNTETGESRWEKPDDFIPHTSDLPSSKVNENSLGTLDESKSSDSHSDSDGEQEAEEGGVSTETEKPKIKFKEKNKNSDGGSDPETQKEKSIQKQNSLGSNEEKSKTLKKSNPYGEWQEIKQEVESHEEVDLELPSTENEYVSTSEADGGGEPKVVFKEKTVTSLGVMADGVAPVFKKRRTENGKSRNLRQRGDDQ
UniProt O75674: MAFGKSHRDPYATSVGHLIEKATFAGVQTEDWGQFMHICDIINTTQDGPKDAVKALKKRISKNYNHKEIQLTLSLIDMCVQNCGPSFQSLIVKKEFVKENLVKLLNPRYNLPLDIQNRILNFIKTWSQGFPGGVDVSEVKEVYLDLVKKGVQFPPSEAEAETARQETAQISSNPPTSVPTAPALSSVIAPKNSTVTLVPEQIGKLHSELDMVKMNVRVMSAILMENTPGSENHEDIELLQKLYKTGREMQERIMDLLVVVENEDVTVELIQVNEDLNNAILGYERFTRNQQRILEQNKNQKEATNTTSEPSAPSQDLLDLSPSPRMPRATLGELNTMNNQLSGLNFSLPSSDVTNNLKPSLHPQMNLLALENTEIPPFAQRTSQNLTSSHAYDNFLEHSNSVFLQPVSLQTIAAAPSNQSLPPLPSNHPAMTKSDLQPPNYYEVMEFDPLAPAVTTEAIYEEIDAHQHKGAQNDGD
UniProt O75934: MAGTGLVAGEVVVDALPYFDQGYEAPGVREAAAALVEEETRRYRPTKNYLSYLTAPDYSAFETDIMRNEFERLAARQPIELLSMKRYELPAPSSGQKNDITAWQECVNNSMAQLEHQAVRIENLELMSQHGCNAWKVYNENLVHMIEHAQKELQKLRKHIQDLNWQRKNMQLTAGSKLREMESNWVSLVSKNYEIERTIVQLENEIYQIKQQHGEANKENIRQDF
UniProt O94880: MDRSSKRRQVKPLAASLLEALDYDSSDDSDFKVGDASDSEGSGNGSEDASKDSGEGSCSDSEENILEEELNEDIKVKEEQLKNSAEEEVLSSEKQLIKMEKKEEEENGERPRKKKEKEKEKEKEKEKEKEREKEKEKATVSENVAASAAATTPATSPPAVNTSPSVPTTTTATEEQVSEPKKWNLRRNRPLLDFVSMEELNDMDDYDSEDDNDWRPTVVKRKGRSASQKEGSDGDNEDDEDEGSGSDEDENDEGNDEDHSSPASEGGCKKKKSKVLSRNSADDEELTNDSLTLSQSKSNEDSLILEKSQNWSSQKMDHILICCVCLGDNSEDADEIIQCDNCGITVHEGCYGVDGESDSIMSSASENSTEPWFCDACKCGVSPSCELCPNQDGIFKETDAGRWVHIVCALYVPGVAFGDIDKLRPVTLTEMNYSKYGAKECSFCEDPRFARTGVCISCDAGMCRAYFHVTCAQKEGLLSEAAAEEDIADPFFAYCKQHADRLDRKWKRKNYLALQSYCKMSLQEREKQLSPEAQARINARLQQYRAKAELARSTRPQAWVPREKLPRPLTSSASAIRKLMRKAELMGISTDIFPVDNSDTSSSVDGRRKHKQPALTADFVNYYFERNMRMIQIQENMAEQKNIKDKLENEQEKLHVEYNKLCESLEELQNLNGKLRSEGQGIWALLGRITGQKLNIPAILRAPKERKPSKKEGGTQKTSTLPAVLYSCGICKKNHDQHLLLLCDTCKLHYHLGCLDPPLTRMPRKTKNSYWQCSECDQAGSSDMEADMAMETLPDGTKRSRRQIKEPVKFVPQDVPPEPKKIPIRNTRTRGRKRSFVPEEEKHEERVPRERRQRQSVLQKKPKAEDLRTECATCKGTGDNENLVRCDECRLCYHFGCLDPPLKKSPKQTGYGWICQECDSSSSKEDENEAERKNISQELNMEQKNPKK

What follows are targets tested with Cc1nc(Nc2ncc(C(=O)Nc3c(C)cccc3Cl)s2)cc(N2CCN(CCO)CC2)n1 [dasatinib] (assay: log2 fold change of tryptic peptide abundance, ligand vs vehicle (limited proteolysis) (log2 ratio); higher = more trypsin-susceptible (destabilized)). Settings: ligand concentration: 5 uM; sample: K562 cleared lysate.

Row | Target | log2 fold change
1 | PPP1R15A (peptide sequence: APLSPSLLIR, peptide start residue: 140) (UniProt O75807) | 0.548
2 | USP19 (peptide sequence: CYRVGYCNQLCQK, peptide start residue: 811) (UniProt O94966) | -0.736
3 | UniProt O75947 (peptide sequence: IVEYEKEMEK, peptide start residue: 112) | -0.376
4 | ZFAND5 (peptide sequence: TNGMCSVCYK, peptide start residue: 26) (UniProt O76080) | 0.263
5 | TRIM16 (peptide sequence: TQVSAVVQR, peptide start residue: 345) (UniProt O95361) | -0.0851
6 | RECQL4 (peptide sequence: GRRPSQDDVEAAPEETR, peptide start residue: 23) (UniProt O94761) | 0.352
7 | MAP4K4 (peptide sequence: NYMQRPSTEQLLK, peptide start residue: 273) (UniProt O95819) | -0.175
8 | PCF11 (peptide sequence: ELTLASKR, peptide start residue: 655) (UniProt O94913) | -0.185
9 | JRK (peptide sequence: GIQHLPVAYK, peptide start residue: 246) (UniProt O75564) | 0.797
10 | UniProt O95201 (peptide sequence: LDHTQQNFYR, peptide start residue: 141) | -1.16
11 | B3GAT3 (peptide sequence: GHLESSLLSHLVDPK, peptide start residue: 278) (UniProt O94766) | 0.0927
12 | HSPA4L (peptide sequence: QVYVDKLQELKK, peptide start residue: 672) (UniProt O95757) | 0.176
13 | TRUB2 (peptide sequence: AATPQVAAELEK, peptide start residue: 285) (UniProt O95900) | -0.123
14 | BAG2 (peptide sequence: IIDEVVNK, peptide start residue: 116) (UniProt O95816) | -0.0784
15 | WBP4 (peptide sequence: WEKPDDFIPHTSDLPSSK, peptide start residue: 191) (UniProt O75554) | -0.61
16 | UniProt O75879 (peptide sequence: VDANISVHHPGEPLGVR, peptide start residue: 260) | 0.152
17 | UniProt O94812 (peptide sequence: AAGQALK, peptide start residue: 816) | -0.316
18 | HERC2 (peptide sequence: KADLENHNK, peptide start residue: 1212) (UniProt O95714) | -0.689
19 | TOM1L1 (peptide sequence: YNLPLDIQNR, peptide start residue: 109) (UniProt O75674) | -0.141
20 | DNAJC8 (peptide sequence: DSVLTSKNQIER, peptide start residue: 34) (UniProt O75937) | -0.652
21 | UniProt O75934 (peptide sequence: VYNENLVHMIEHAQK, peptide start residue: 137) | -0.105
22 | ARIH2 (peptide sequence: SCWEQHCSVLVK, peptide start residue: 163) (UniProt O95376) | 0.129
23 | UniProt O75521 (peptide sequence: IMFNRPK, peptide start residue: 153) | -0.2
24 | BPNT1 (peptide sequence: NYDYYASR, peptide start residue: 290) (UniProt O95861) | -0.317
25 | SAP30 (peptide sequence: AAGNASFSKR, peptide start residue: 79) (UniProt O75446) | -0.135
26 | UniProt P00491 (peptide sequence: ANHEEVLAAGK, peptide start residue: 255) | 0.173
27 | ACSL3 (peptide sequence: VGAPLVCCEIK, peptide start residue: 497) (UniProt O95573) | 0.265
28 | UniProt O94880 (peptide sequence: NSAEEEVLSSEK, peptide start residue: 83) | 0.116
29 | ACTL6A (peptide sequence: ENMEAISPLK, peptide start residue: 80) (UniProt O96019) | -0.186

Given with tabs: part of the list above
Row	Target	log2 fold change
7	MAP4K4 (peptide sequence: NYMQRPSTEQLLK, peptide start residue: 273) (UniProt O95819)	-0.175
8	PCF11 (peptide sequence: ELTLASKR, peptide start residue: 655) (UniProt O94913)	-0.185
